Measurements reported in patent US20160053258A1.
Numbering of substitutions follows the chain as printed. In names and notes the source's numbering stands. Results are given in words; binding and its absence hold for the method and conditions named. Binding seen in cells or lysates may run through a third protein. Some binding calls cover weakened binding; strength is not graded here. For some assays here: Tags and fused reporters may be left off the sequences shown.

B1: 6×HIS-LIN28A-K135R (protein, human, UniProt Q9H9Z2 1-209, looked up, not shown: small tags and cut ends)
chain: MGSVSNQQFAGGCAKAAEEAPEEAPEDAARAADEPQLLHGAGICKWFNVRMGFGFLSMTARAGVALDPPVDVFVHQSKLHMEGFRSLKEGEAVEFTFKKSAKGLESIRVTGPGGVFCIGSERRPKGKSMQKRRSRGDRCYNCGGLDHHAKECKLPPQPKKCHFCQSISHMVASCPLKAQQGPSAQGKPTYFREEEEEIHSPTLLPEAQN
B2: SET7/9 (in cell lysates) (enzyme, human, UniProt Q8WTS6 1-366, looked up)
chain: MDSDDEMVEEAVEGHLDDDGLPHGFCTVTYSSTDRFEGNFVHGEKNGRGKFFFFDGSTLEGYYVDDALQGQGVYTYEDGGVLQGTYVDGELNGPAQEYDTDGRLIFKGQYKDNIRHGVCWIYYPDGGSLVGEVNEDGEMTGEKIAYVYPDERTALYGKFIDGEMIEGKLATLMSTEEGRPHFELMPGNSVYHFDKSTSSCISTNALLPDPYESERVYVAESLISSAGEGLFSKVAVGPNTVMSFYNGVRITHQEVDSRDWALNGNTLSLDEETVIDVPEPYNHVSKYCASLGHKANHSFTPNCIYDMFVHPRFGPIKCIRTLRAVEADEELTVAYGYDHSPPGKSGPEAPEWYQVELKAFQATQQK
B3: LIN28A (125-209) (protein, human, UniProt Q9H9Z2 125-209, looked up, not shown: large carriers)
chain: KGKSMQKRRSKGDRCYNCGGLDHHAKECKLPPQPKKCHFCQSISHMVASCPLKAQQGPSAQGKPTYFREEEEEIHSPTLLPEAQN
B4: 6×HIS-labeled human LIN28A (full-length) (protein, UniProt Q9H9Z2 1-209, looked up, not shown: small tags and cut ends)
chain: B1 chain with R135K

Key:
GST-SET7/9 (human) = target: T1, GST-SET7/9 (human) (UniProt Q8WTS6); assay: in vitro GST pull-down, immunoblot
T1 sequence (looked up): B2 chain

[1] = target: T2, over-expressed LIN28A (HEK293T cells) (UniProt Q9H9Z2); assay: co-immunoprecipitation of over-expressed LIN28A from HEK293T lysates, immunoblot; reverse immunoprecipitation of SET7/9 gave the same result
T2 sequence (looked up): B1 chain with R135K

[2] = target: T3, endogenous LIN28A (human) (UniProt Q9H9Z2); assay: co-immunoprecipitation of endogenous LIN28A from H9 and NCCIT lysates, immunoblot; reverse immunoprecipitation of SET7/9 gave the same result
T3 sequence (looked up): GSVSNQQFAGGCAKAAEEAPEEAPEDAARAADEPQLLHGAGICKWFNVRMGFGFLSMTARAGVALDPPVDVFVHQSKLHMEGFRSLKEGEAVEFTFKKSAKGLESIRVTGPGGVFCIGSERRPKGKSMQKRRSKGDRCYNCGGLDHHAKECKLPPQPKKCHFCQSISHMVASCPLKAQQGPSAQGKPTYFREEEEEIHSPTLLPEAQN

| Binder | binding (GST-SET7/9 (human)) | binding [1] | binding [2] |
| --- | --- | --- | --- |
| B1 | binds |  |  |
| B2 |  | binds | binds |
| B3 | binds |  |  |
| B4 | binds |  |  |
